# Measurements taken from publication PMC4600948.
# Sequences of proteins named here, by UniProt entry; tags and fusion partners are left off. A change or cut given only in a name is not applied to a line headed by its entry.
# UniProt O14746: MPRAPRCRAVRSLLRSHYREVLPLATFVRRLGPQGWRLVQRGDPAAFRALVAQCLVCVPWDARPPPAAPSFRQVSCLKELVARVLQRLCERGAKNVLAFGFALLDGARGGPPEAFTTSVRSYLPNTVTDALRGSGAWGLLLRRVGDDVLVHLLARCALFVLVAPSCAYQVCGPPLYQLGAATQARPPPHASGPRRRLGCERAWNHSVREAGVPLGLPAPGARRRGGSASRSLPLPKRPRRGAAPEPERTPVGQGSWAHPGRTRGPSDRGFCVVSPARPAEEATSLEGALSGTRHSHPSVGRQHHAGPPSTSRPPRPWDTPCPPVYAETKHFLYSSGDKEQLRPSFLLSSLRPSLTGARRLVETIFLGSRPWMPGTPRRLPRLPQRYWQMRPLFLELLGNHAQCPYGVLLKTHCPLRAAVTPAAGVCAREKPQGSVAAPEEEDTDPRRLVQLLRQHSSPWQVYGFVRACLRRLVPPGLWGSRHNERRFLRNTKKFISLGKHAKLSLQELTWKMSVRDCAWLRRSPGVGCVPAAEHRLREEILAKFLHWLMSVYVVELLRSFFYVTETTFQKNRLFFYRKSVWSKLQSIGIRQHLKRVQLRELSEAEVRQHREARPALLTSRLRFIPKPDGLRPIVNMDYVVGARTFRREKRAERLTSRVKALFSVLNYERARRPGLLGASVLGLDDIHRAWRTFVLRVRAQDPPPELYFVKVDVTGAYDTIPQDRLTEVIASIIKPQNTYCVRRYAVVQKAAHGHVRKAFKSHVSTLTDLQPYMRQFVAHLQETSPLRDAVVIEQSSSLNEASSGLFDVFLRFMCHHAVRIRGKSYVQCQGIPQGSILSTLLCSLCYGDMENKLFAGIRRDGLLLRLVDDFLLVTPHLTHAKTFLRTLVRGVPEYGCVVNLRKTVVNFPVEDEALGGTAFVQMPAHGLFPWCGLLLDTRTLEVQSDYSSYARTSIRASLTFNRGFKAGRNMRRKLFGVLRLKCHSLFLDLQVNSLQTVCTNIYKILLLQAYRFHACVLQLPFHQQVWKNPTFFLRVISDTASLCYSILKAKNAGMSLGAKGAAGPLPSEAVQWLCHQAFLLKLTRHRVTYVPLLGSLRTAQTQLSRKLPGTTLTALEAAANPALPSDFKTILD
# Experiments:
# [1] = target: MCP-TERT minimal RNP (RRL, WT) (Homo sapiens) (UniProt O14746); test: single-molecule TIRF, immobilized TERT; details: DNA 0.3-30 nM (and 100 nM), 15 min, 500 nM blocking oligo pre-incubation, wash before imaging, residues 1-1132, protein details: 3xFLAG-MCP N-terminal, biotin or Cy5 via CoA, label: 5'-Cy5, single-stranded DNA
# [2] = target: MCP-TERT telomerase holoenzyme (293T, WT) (Homo sapiens) (UniProt O14746); test: single-molecule TIRF, immobilized TERT; details: DNA 0.3-30 nM (and 100 nM), 15 min, 500 nM blocking oligo pre-incubation, wash before imaging, protein in a lysate after overexpression, residues 1-1132, protein details: 3xFLAG-MCP N-terminal, biotin or Cy5 via CoA, label: 5'-Cy5, single-stranded DNA
sequence,measurement,setting,value
TTAGGGTTAGGG [Cy5-(T2AG3)2],Kd,"[1]; RRL-F, hTRmin RNP plus hTR-free TERT, protein translated in …",14.7 nM
same,Kd,"[1]; RRL-O, hTRmin RNP, protein translated in vitro",8.7 nM
same,Kd,"[2]; 293T-F, hTR RNP plus hTR-free TERT, ~4-fold more binding at 100 vs 30 nM",5.4 nM
same,Kd,"[2]; 293T-O, hTR RNP, no added binding at 100 vs 30 nM",4.9 nM

# For at least one entry, the source does not settle the construct or the ends of the probe. For some of these results: Results from cells or extracts need not show a direct contact.
